Measurements from “University of Dundee, Small-Polar-MMV Screening Library” (2021), ChEMBL document CHEMBL3988442.

Protein sequences, listed by entry. Tags and fused reporters are not part of them. Residues count along the entry.
UniProt Q4DA54, 1-478: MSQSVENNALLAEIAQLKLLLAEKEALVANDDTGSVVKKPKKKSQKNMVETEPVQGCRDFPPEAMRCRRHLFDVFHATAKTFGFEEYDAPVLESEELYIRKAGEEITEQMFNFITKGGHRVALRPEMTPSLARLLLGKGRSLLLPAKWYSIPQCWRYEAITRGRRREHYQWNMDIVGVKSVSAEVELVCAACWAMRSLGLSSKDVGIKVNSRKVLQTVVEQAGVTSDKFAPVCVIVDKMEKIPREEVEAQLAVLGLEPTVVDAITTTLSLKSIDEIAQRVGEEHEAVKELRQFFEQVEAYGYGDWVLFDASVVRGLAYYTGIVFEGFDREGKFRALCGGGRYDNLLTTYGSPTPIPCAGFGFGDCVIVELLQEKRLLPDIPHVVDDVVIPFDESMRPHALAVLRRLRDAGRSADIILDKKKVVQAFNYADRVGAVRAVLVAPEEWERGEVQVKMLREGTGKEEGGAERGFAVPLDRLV

The filed quantity is “Percent Effect” (%).
How 0% and 100% were set is not recorded. Most values in the screen are low, and negative values occur.
This is an unselected part of the compounds tested.

Toxoplasma: 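Assay of Toxoplasma gondii numbers, read through their beta-galactosidase reporter with a colour substrate. Tested at 10 µM. The record gives no direction; the compounds picked for IC50 retests had high values, so higher reads as fewer parasites. About 67,000 compounds were tested under these conditions; 0.38% (about 260) showed 50% or more at least once.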
TcHisRS: 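Histidine-tRNA ligase, Trypanosoma cruzi CL Brener (UniProt Q4DA54). Enzyme assay of histidyl-tRNA synthetase; the read-out is not stated. Concentration: 30 µM. The record gives no direction; compounds that gave an IC50 in retests scored well above the rest, so higher reads as stronger inhibition. Of about 69,000 compounds tested this way, about 31 (0.045%) reached 50% or more in at least one test.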

For Cc1nc2cc(C3CCN(Cc4ccccc4F)C3)nn2c(O)c1C (stereo unspecified) the result was Toxoplasma: 15.76%; TcHisRS: 4.255%. Cc1ncncc1C(=O)N1CCCC(n2cccn2)C1 (stereo unspecified) read Toxoplasma: -11.61%; TcHisRS: 3.39%. N#Cc1c(F)cccc1NCCCOCC1CCOCC1 read Toxoplasma: -1.935%; TcHisRS: 5.882%. CO[C@@]1(C)C[C@@H](O)C12CCN(C(=O)CCn1c(C)cccc1=O)CC2 read Toxoplasma: -12.23%; TcHisRS: 2.128%. Result for CC(c1nc(C2CC2)no1)N1CCN(Cc2noc(C3CC3)n2)CC1 (stereo unspecified) was Toxoplasma: 7.446%; TcHisRS: 1.994%. CN1CCC(NC(=O)[C@H]2CC[C@@H]3[C@@H](CCN3c3ncccn3)O2)CC1 read TcHisRS: 5.747%. O=C(Cc1cccs1)Nc1cnn(C2CCOCC2)c1 read Toxoplasma: 30.3%; TcHisRS: 11.06%. For CN(C)C1COC2(CCN(Cc3nccs3)CC2)C1 (stereo unspecified) the result was TcHisRS: 5.714%.

Cn1cccc1C(=O)N1CCCC2(CCCN2Cc2cccnc2)C1 (stereo unspecified) read Toxoplasma: -12.2%; TcHisRS: 0.5464%. Result for Nc1nccc(N2CCCC(CO)(CCOc3ccccc3)C2)n1 (stereo unspecified) was Toxoplasma: 14.72%; TcHisRS: 5.021%. COc1ccc(-c2nc(CNC3CCc4nc(C)nn4C3)no2)cc1 (stereo unspecified) gave Toxoplasma: -2.441%; TcHisRS: 6.936%. Result for Cc1nn(Cc2ccc(C(=O)NCCCN3CCCC3=O)o2)c(C)c1Br was Toxoplasma: -7.609%; TcHisRS: 2.97%. Cc1ccc(C(=O)NCc2ccc(N3CCNC(=O)C3)c(F)c2)cc1 gave Toxoplasma: -29.35%; TcHisRS: 2.062%. COCCNC(=O)C1CC(=O)N(c2n[nH]c3cccc(F)c23)C1 (stereo unspecified) gave Toxoplasma: -17.02%; TcHisRS: 1.754%. For COc1ccc(NC(=O)CSC(F)(F)F)cn1 the result was Toxoplasma: -5.558%; TcHisRS: 10.71%. O=C1CCCN1Cc1nnc2n1CCN(Cc1ccco1)CC2 gave TcHisRS: 5.556%.

With CN1CCN(C(=O)Cc2ccc(S(=O)(=O)C(F)F)cc2)CC1 the screen gave Toxoplasma: 9.437%; TcHisRS: -5.556%. Result for CC(C)COC(=O)N1CCN(C(=O)c2ccc3nccn3c2)CC1 was Toxoplasma: -6.533%; TcHisRS: 8.861%. Result for COc1ncccc1CNc1snc(Cl)c1C#N was Toxoplasma: 29.55%; TcHisRS: 0.6135%. For Cc1ccsc1CNC(=O)CC1CN(C(=O)OC(C)(C)C)C1 the result was Toxoplasma: -6.641%; TcHisRS: 3.922%. CCCC(=O)NCC(Cc1cccc(F)c1)N1CCCC1=O (stereo unspecified) gave Toxoplasma: -16.93%; TcHisRS: 6.024%. With Cc1cc(C[S+]([O-])CC(=O)Nc2c(C)cccc2C)no1 (stereo unspecified) the screen gave Toxoplasma: -0.1059%; TcHisRS: -1.527%. CCC1CCCN(S(=O)(=O)c2cnn(C)c2)C1 (stereo unspecified) gave Toxoplasma: -4.769%; TcHisRS: -3.158%. With CC1COCCN1Cc1nc(-c2ccsc2)no1 (stereo unspecified) the screen gave Toxoplasma: -37.42%; TcHisRS: 5.814%.

CC(C)c1nc(CN(C)C(=O)CNS(=O)(=O)c2cccs2)cs1 read Toxoplasma: 3.04%; TcHisRS: 14.12%. For CCOCCCC(=O)Nc1cccnc1-n1ccnc1C the result was Toxoplasma: -28.65%; TcHisRS: 3.627%. CN(C)Cc1nc(C(C)(C)NC(=O)c2nc3ccccc3s2)no1 read Toxoplasma: 8.192%; TcHisRS: 4.167%. COc1ccccc1OCCCN1CC=C(c2cnn(C)c2)CC1 gave Toxoplasma: 1.011%; TcHisRS: 2.597%. Result for CC(NC(=O)CSCC#N)c1ccc(Cl)cc1 (stereo unspecified) was Toxoplasma: 16.51%; TcHisRS: 5.78%. Fc1ccccc1Cn1c(C2CCNCC2)cc2cccnc21 gave TcHisRS: 9.091%. [H][C@@]12CCCO[C@]1([H])[C@H](NC(=O)c1cnn(C)c1)CN2Cc1ccoc1 read Toxoplasma: 5.21%. With Cc1cc(CN2CCN(c3ccc4nncn4n3)C(C)C2)on1 (stereo unspecified) the screen gave Toxoplasma: 28.24%; TcHisRS: 1.149%.

Result for Cc1nn(C)cc1CNCc1ccc(N(C)C)cc1 was Toxoplasma: 6.343%; TcHisRS: -4.624%. For Cc1cc(NC(=O)N(CCO)Cc2ccsc2)no1 the result was Toxoplasma: -12.08%; TcHisRS: 1.183%. With CC(Cn1cccn1)NC(=O)NCCN1CCc2ccccc2C1 (stereo unspecified) the screen gave Toxoplasma: -6.154%; TcHisRS: 3.665%. COc1ccccc1CN1C[C@@H](F)[C@@H](OCc2nc3cnccc3[nH]2)C1 read Toxoplasma: 2.702%; TcHisRS: 3.483%. CCn1ccnc1CN1CCC(CCC(=O)Nc2ccccc2Cl)CC1 read Toxoplasma: 1.9%; TcHisRS: -0.8264%. Result for CC(C)c1noc(CNc2ccccc2CC(=O)N(C)C)n1 was Toxoplasma: -4.285%; TcHisRS: 7.216%. For CC(C)OC(=O)[C@@H]1CCN(C(=O)c2ccccn2)[C@@H]1c1ccc(F)cc1 the result was TcHisRS: 4.615%. For [H][C@@]12C[C@H](C(=O)NC)[C@@]([H])(CN(C(=O)Nc3ccc(F)cc3)C1)O2 the result was Toxoplasma: -1.774%.

O=C(CCN1CCC(C(=O)c2cc(F)ccc2F)CC1)NC1CCCC1 read Toxoplasma: 31.34%; TcHisRS: 1.961%. For CC(C)C(=O)N1CCC2(CN(CC3CCCC3)C2)C1 the result was TcHisRS: -4.813%. For COCCN1CCC2(CCN(CC3CC3)CC2)C1=O the result was TcHisRS: 3.226%. With CC(C)N(C)Cc1cnc2n1CCN(S(=O)(=O)c1ccccc1)C2.O=C(O)C(F)(F)F the screen gave Toxoplasma: 16.52%. With N#CC1(NC(=O)c2cc(Cl)c3c(c2)OCCCO3)CCC1 the screen gave Toxoplasma: 0.2326%; TcHisRS: 23.33%. C[C@@H]1CN(C2(C(=O)N3CCCCCC3)Cc3ccccc3C2)C[C@H](C)O1 gave Toxoplasma: -1.454%; TcHisRS: 2.439%. COc1cccc2c3c(c(=O)[nH]c12)CCO3 gave Toxoplasma: 13.05%; TcHisRS: -7.216%.

Some entries from above, unchanged:

With Cc1nn(Cc2ccc(C(=O)NCCCN3CCCC3=O)o2)c(C)c1Br the screen gave Toxoplasma: -7.609%; TcHisRS: 2.97%.
With COc1ccc(NC(=O)CSC(F)(F)F)cn1 the screen gave Toxoplasma: -5.558%; TcHisRS: 10.71%.
With O=C(Cc1cccs1)Nc1cnn(C2CCOCC2)c1 the screen gave Toxoplasma: 30.3%; TcHisRS: 11.06%.
With Cc1ccsc1CNC(=O)CC1CN(C(=O)OC(C)(C)C)C1 the screen gave Toxoplasma: -6.641%; TcHisRS: 3.922%.
With COCCNC(=O)C1CC(=O)N(c2n[nH]c3cccc(F)c23)C1 (stereo unspecified) the screen gave Toxoplasma: -17.02%; TcHisRS: 1.754%.